Molecules are shown by their SMILES. Some compounds share one range, which may span the group rather than tell each member.

In the first data set the test system is G. lamblia WB (MtzS). In words: ATP-bioluminescence growth/survival EC50 assay, G. lamblia WB. The settings on record: versus 8f, 8g and 8h. The method, then:
(§1) Compounds were screened for antiparasitic activity using an ATP-bioluminescence based assay for cell growth and survival, [24]. […] Viable cell numbers were determined in triplicate using the CellTiter-Glo Luminescent Cell Viability Assay.
As to `O=C(NCc1ccccn1)c1ncc([N+](=O)[O-])[nH]1` [Compound 12f, 5-nitro-N-(pyridin-2-ylmethyl)-1H-imidazole-2-carboxamide], the “fold less active than the respective 1-methyl analogues, G. lamblia” value is 3.5–5.5 fold.

With `CN(C)C(=O)c1ncc([N+](=O)[O-])[nH]1` [Compound 12g, N,N-dimethyl-5-nitro-1H-imidazole-2-carboxamide], the “fold less active than the respective 1-methyl analogues, G. lamblia” value is 3.5–5.5 fold.

As for `O=C(c1ncc([N+](=O)[O-])[nH]1)N1CCOCC1` [Compound 12h, Morpholino(5-nitro-1H-imidazol-2-yl)methanone], the “fold less active than the respective 1-methyl analogues, G. lamblia” value was 3.5–5.5 fold.

The test system of a further data set is G. lamblia 713M3 (MtzR). The data set is described as follows: ATP-bioluminescence growth/survival EC50 assay, G. lamblia 713M3. The format is cell-based, Giardia lamblia.
Conditions: not given
The method, then: as §1
With `Cn1c([N+](=O)[O-])cnc1C(=O)NCc1cccc(OC(F)(F)F)c1` [Compound 8c, 1-methyl-5-nitro-N-(3-(trifluoromethoxy)benzyl)-1H-imidazole-2-carboxamide], the “fold more active than metronidazole, MtzR G. lamblia” value (“fold more active than metronidazole” for short) is reported as 3–12 fold.

Turning to `CC(NC(=O)c1ncc([N+](=O)[O-])n1C)c1ccc(F)cc1` (centres unmarked) [Compound 8d, N-(1-(4-fluorophenyl)ethyl)-1-methyl-5-nitro-1H-imidazole-2-carboxamide], the “fold more active than metronidazole” value is listed as 3–12 fold.

Turning to `Cn1c([N+](=O)[O-])cnc1C(=O)NCc1ccccn1` [Compound 8f, 1-methyl-5-nitro-N-(pyridin-2-ylmethyl)-1H-imidazole-2-carboxamide.xTFA], the “fold more active than metronidazole” value is given as 3–12 fold.

With `Cn1c([N+](=O)[O-])cnc1C(=O)N1CCCC1` [Compound 8i, (1-methyl-5-nitro-1H-imidazol-2-yl)(pyrrolidin-1-yl)methanone], the “fold more active than metronidazole” value is reported as 3–12 fold.

With `Cn1c([N+](=O)[O-])cnc1C(=O)NC1CCCCC1` [Compound 8k, N-cyclohexyl-1-methyl-5-nitro-1H-imidazole-2-carboxamide], the “fold more active than metronidazole” value is listed as 3–12 fold.

The test system of a further data set is E. histolytica HM1:IMSS. The data set is described as follows: ATP-bioluminescence growth/survival EC50 assay, E. histolytica. The format is cell-based, Entamoeba histolytica.
Conditions: not given
The method, then:
as §1
In the case of `CC(NC(=O)c1ncc([N+](=O)[O-])[nH]1)c1ccc(F)cc1` (centres unmarked) [Compound 12d, N-(1-(4-fluorophenyl)ethyl)-5-nitro-1H-imidazole-2-carboxamide], the “fold more potent than metronidazole, E. histolytica” value (from here on “fold more potent than metronidazole”) is 2–3 fold.

On to `Cc1ccc(CCNC(=O)c2ncc([N+](=O)[O-])[nH]2)cc1` [Compound 12e, N-(4-methylphenethyl)-5-nitro-1H-imidazole-2-carboxamide], for which the “fold more potent than metronidazole” value was 2–3 fold.

Regarding `CN(C)C(=O)c1ncc([N+](=O)[O-])[nH]1` [Compound 12g, N,N-dimethyl-5-nitro-1H-imidazole-2-carboxamide], the “fold more potent than metronidazole” value is listed as 2–3 fold.

As for `O=C(NC1CCCCC1)c1ncc([N+](=O)[O-])[nH]1` [Compound 12k, N-cyclohexyl-5-nitro-1H-imidazole-2-carboxamide], the “fold more potent than metronidazole” value is given as 2–3 fold.

Another data set concerns T. vaginalis F1623. The data set is described as follows: ATP-bioluminescence growth/survival EC50 assay, T. vaginalis. The format is cell-based, Trichomonas vaginalis.
Conditions: not given
The method, then:
as §1
For `Cc1ccc(CCNC(=O)c2ncc([N+](=O)[O-])[nH]2)cc1` [Compound 12e, N-(4-methylphenethyl)-5-nitro-1H-imidazole-2-carboxamide], the “fold less potent than 12d, T. vaginalis” value is recorded as 2–3 fold.

In the case of `O=C(c1ncc([N+](=O)[O-])[nH]1)N1CCCC1` [Compound 12i, (5-nitro-1H-imidazol-2-yl)(pyrrolidin-1-yl)methanone], the “fold less potent than 12d, T. vaginalis” value was 2–3 fold.

For the origin of these results see article PMC4920673, “Nitroimidazole carboxamides as antiparasitic agents targeting Giardia lamblia, Entamoeba histolytica and Trichomonas vaginalis” (European Journal of Medicinal Chemistry, 2016).
